The assay is described as follows: qHTS Assay for Modulators of Lamin A Splicing. The note with it: HeLa LMNA splicing GFP/RFP minigene ratio, 48 h. The gist of the method:
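S3 HeLa cells stably expressing lamin A-EGFP splicing minigene plus DsRed2, 600 cells/well, 48 h compound exposure at 37C. Laser-scanning cytometry; analysed as GFP (500-530 nm)/RFP (575-640 nm) total intensity ratio; 0.5% DMSO vehicle.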
A general note: In qHTS, concentration-response curves come from the screen itself.

[1] abbreviates: measured here: GFP splicing reporter channel.
[2] abbreviates: measured here: RFP viability control channel.

Molecules are shown by their SMILES. The list shows a part of the results. Further columns of the screen follow, without active or inactive calls. Compounds called inactive in the main read-out are mostly missing here. The note in brackets gives the kind of curve behind each potency; many fits are weak.

Take `CCn1ncc(/C=N/NC(=O)c2ccc3c(c2)OCO3)c1C`: the AC50 is, setting by setting: under setting [1], 22.4 µM [falling, single point]; under setting [2], 35.5 µM [falling, single point].

With `CSc1ccc(-c2nnn(Cc3ccccn3)n2)cc1`, the AC50 is 17.8 µM [rising, single point] under setting [1] and 22.4 µM [rising, single point] under setting [2].

On to `Cc1ccc(C(=O)OCC(=O)N2CC(=O)Nc3ccccc32)s1`, for which the AC50 was 0.0126 µM [rising, full curve, poor fit] under setting [1] and 22.4 µM [rising, partial curve] under setting [2].

As to `CC(=O)Nc1nc(N)n(-c2ccccc2)n1`, the AC50 is 2.51 µM [rising, partial curve, poor fit] under setting [1] and 2.82 µM [rising, partial curve] under setting [2].

Consider `CCn1c(=NC(=O)c2ccc(S(=O)(=O)N(C)C)cc2)sc2cccc(OC)c21`, for which the AC50 reads like this: under setting [1], 3.55 µM [falling, partial curve]; under setting [2], 3.16 µM [falling, partial curve].

As to `COc1cccc(NC(=O)CN2C(=O)NC(C)(CC(C)C)C2=O)c1` (configuration not stated), the AC50 under setting [2] is 0.562 µM [rising, partial curve, poor fit].

With `Cc1ccc(C2CC(C(F)F)n3ncc(C(=O)Nc4c(C)nn(Cc5c(F)cccc5Cl)c4C)c3N2)cc1` (configuration not stated), the AC50 under setting [2] was 6.31 µM [rising, partial curve, poor fit].

In the case of `Cc1cccc(NC(=O)c2ccc(CN3CC(=O)N4CCCCC4C3=O)cc2)c1C` (configuration not stated), the AC50 under setting [2] is 0.141 µM [falling, single point].

As to `C[C@H](O)C(=O)C1=Nc2c(nc(N)[nH]c2=O)NC1`, the AC50 runs as follows: under setting [1], 5.62 µM [falling, partial curve, poor fit]; under setting [2], 6.31 µM [falling, single point].

Consider `CC(C)C[C@H](NC(=O)NC(C)C)C(=O)O`, for which the AC50 under setting [1] was 2.82 µM [rising, partial curve] and the AC50 under setting [2] is 1.78 µM [rising, full curve, poor fit].

Turning to `Cc1cc(N2CCN(c3cccc(C)c3C)CC2)nc(-c2ccccc2)n1`, the AC50 under setting [2] is 35.5 µM [rising, single point].

As to `CN(C)CCC(c1ccc(Cl)cc1)c1ccccn1` (configuration not stated), the AC50 reads like this: under setting [1], 0.891 µM [falling, full curve]; under setting [2], 5.62 µM [falling, partial curve, poor fit].

On to `Cn1cc(-c2nc3cnc(N4CCOCC4)nc3n(CCC#N)c2=O)c2ccccc21`, for which the AC50 under setting [2] was 11.2 µM [falling, single point].

On to `CN(C)c1cccc(C(=O)N/N=C/c2ccsc2)c1`, for which, under setting [1], the AC50 was 0.0316 µM [falling, full curve, poor fit].

`O=S(=O)(c1cccc(Cl)c1)n1c(/C=C/c2ccccc2Cl)nc2ccccc21`: the half-maximal activity concentration (AC50) under setting [1] is 14.1 µM [rising, single point].

With `CCn1cnc2sc(C(=O)N3CCN(Cc4ccc5c(c4)OCO5)CC3)c(C)c2c1=O`, the AC50 is, setting by setting: under setting [1], 11.2 µM [rising, partial curve, poor fit]; under setting [2], 14.1 µM [rising, partial curve].

For the compound `O=C(O)CNC(=O)c1nc(-c2ccccc2)n(-c2ccccc2)n1`, the AC50 under setting [2] is 0.2 µM [falling, full curve, poor fit].

Take `Cc1ccc(S(=O)(=O)/N=C2/C=C(Sc3ncn[nH]3)C(=O)c3ccccc32)cc1`: the AC50 under setting [1] is 4.47 µM [falling, full curve] and the AC50 under setting [2] is 4.47 µM [falling, full curve].

`Oc1cccc(O)c1O`: the AC50 was 0.708 µM [rising, full curve, poor fit] under setting [1] and 14.1 µM [rising, partial curve, poor fit] under setting [2].

For the compound `COC1=CC(=O)C[C@@H](C)[C@]12Oc1c(Cl)c(OC)cc(OC)c1C2=O`, the concentration at half-maximal activity (AC50) under setting [1] was 11.2 µM [rising, single point].

Regarding `S=C(NCCCc1ccccc1)Nc1ccc(Cl)cc1`, under setting [2], the AC50 was 17.8 µM [rising, single point].

As to `COC(=O)c1ccc(Cn2cnc3c(cnn3-c3ccc(C)c(C)c3)c2=O)o1`, the AC50 is, setting by setting: under setting [1], 20 µM [rising, single point]; under setting [2], 22.4 µM [rising, single point].

Take `Cc1nc2ccccc2n1CC(=O)N/N=C/c1cccs1`: the half-maximal activity concentration (AC50) under setting [2] is 25.1 µM [rising, single point].

For `CC(C)Oc1ccc(C(=O)Nc2nnc3n2CCS3)cc1`, the AC50 under setting [2] is 17.8 µM [falling, partial curve, poor fit].

`Cc1ccc(C)c(NC(=O)C2CCCN2C(=O)OC(C)(C)C)c1` (configuration not stated): the AC50 under setting [1] was 5.62 µM [rising, single point] and the AC50 under setting [2] was 5.62 µM [rising, single point].

With `S=C(Nc1ccc(Oc2ccccc2)cc1)NC1CCCCCC1`, under setting [2], the AC50 was 12.6 µM [rising, partial curve, poor fit].

Take `C#CCNC(=O)c1ccc(OCc2ccccc2)cc1Cl`: the AC50 under setting [1] was 31.6 µM [falling, partial curve].

Turning to `Cc1ccc(OCC(=O)N2CC(C)OC(C)C2)c([N+](=O)[O-])n1` (configuration not stated), under setting [1], the AC50 is 0.794 µM [rising, full curve, poor fit].

Turning to `COCCN(CCOC)S(=O)(=O)c1ccc(C(=O)NC2CCN(Cc3ccccc3)CC2)cc1`, the AC50 under setting [2] was 17.8 µM [rising, partial curve, poor fit].

With `O=C(Cn1cc(SCc2ccc(Cl)cc2)c2ccccc21)N1CCOCC1`, the concentration at half-maximal activity (AC50) under setting [2] is 31.6 µM [rising, single point].

On to `COc1ccccc1OCC(=O)Nc1cc(S(=O)(=O)N2CCCCC2)ccc1N1CCCCC1`, for which the AC50 reads like this: under setting [1], 15.8 µM [rising, single point]; under setting [2], 17.8 µM [rising, partial curve].

`CCOc1ccccc1NC(=O)CCN1CCN(S(=O)(=O)c2ccc(OC)cc2)CC1`: the AC50 under setting [2] is 6.31 µM [rising, full curve, poor fit].

Turning to `Cc1nn(Cc2ccccc2Cl)c(C)c1NC(=O)c1ccn(C)n1`, under setting [2], the AC50 is 15.8 µM [rising, single point].

In the case of `CCOC(=O)C[N+]1(C)CCN(C(C)=O)CC1`, the AC50 under setting [1] was 0.00355 µM [rising, full curve, poor fit].

Regarding `Oc1[nH]c2ccccc2c1N=Nc1ccccc1F`, the AC50 is 1.12 µM [rising, partial curve, poor fit] under setting [1] and 2.24 µM [rising, partial curve, poor fit] under setting [2].

For the compound `O=C(NCc1cn(-c2ccccc2)nc1-c1ccc(F)cc1)c1cccc([N+](=O)[O-])c1`, under setting [2], the AC50 was 35.5 µM [rising, single point].

`CC(=O)c1ccc(OCCCC(=O)Nc2cc(S(=O)(=O)N(C)C)ccc2C)cc1`: under setting [2], the AC50 is 12.6 µM [rising, partial curve, poor fit].

With `Cc1nn(Cc2ccccc2)c2sc(C(=O)N3CCN(Cc4ccc5c(c4)OCO5)CC3)cc12`, the AC50 by setting is: under setting [1], 8.91 µM [rising, partial curve]; under setting [2], 17.8 µM [rising, single point].

With `COc1ccccc1-c1nnc(Sc2nc([N+](=O)[O-])nn2C)o1`, the AC50 runs as follows: under setting [1], 15.8 µM [falling, single point]; under setting [2], 25.1 µM [falling, single point].

Turning to `O=C(Cn1cc(C(=O)C(F)(F)F)c2cc(Br)ccc21)N1CCOCC1`, the AC50 under setting [2] is 12.6 µM [rising, single point].

Regarding `COc1ccccc1Nc1nc(Cl)c(C=O)s1`, the AC50 under setting [2] is 7.94 µM [rising, partial curve].

In the case of `CSc1nc(N(C)NC(=O)c2ccc(Cl)cc2)c2ccccc2n1`, the AC50 was 8.91 µM [rising, partial curve, poor fit] under setting [1] and 3.16 µM [rising, full curve] under setting [2].

As for `COc1c2c(cc3occ(-c4ccc5c(c4)OCO5)c(=O)c13)OC(C)(C)C=C2`, the AC50 is, setting by setting: under setting [1], 17.8 µM [falling, single point]; under setting [2], 35.5 µM [falling, single point].

As to `NCC(O)CN(c1ccccc1)c1ccccc1` (configuration not stated), the AC50 under setting [1] is 2.82 µM [falling, partial curve].

For the compound `CCCNC(=O)c1ccc(Cn2c(SCC(N)=O)nc3ccccc3c2=O)cc1`, under setting [1], the AC50 was 0.251 µM [falling, full curve].

For the compound `O=C(c1cccc(Cl)c1)c1nn(-c2ccccc2)c(=O)cc1C(F)(F)F`, the AC50 under setting [1] is 11.2 µM [falling, single point] and the AC50 under setting [2] is 0.0355 µM [falling, partial curve].

For `Cc1ccc2nc(-c3ccc(SCC(=O)Nc4cc(C)on4)nc3)[nH]c2c1`, under setting [2], the AC50 is 11.2 µM [rising, partial curve, poor fit].

As for `COc1cc(/C=N/NC(=S)NC(C)C)ccc1OCC(=O)Nc1c(C)cc(C)cc1C`, under setting [2], the AC50 was 3.55 µM [rising, full curve].

For the compound `COc1ccccc1N=c1oc2cc(O)ccc2cc1C(N)=O`, the AC50 under setting [2] is 1.12 µM [falling, partial curve].

Regarding `O=C(CSc1nc(=O)n(CCN2CCOCC2)c2c1CCC2)Nc1ccc(F)cc1F`, under setting [2], the AC50 is 1.12 µM [falling, single point].

`COCCCn1c(SCC(=O)Nc2ccc(OC)cc2)nc2c(sc3ccccc32)c1=O`: the AC50 under setting [2] was 0.178 µM [falling, full curve, poor fit].

Turning to `CC(C)(C)c1cc(/C=C(\C#N)C(N)=S)cc(C(C)(C)C)c1O`, the AC50 under setting [1] is 5.62 µM [falling, partial curve] and the AC50 under setting [2] is 2.82 µM [falling, full curve].

For `COc1ccc(NC(=O)c2cc(C)on2)cc1`, under setting [1], the AC50 was 0.631 µM [rising, single point].

Turning to `CCCCC1=NC2(CCCC2)C(=O)N1Cc1ccc(-c2ccccc2-c2nn[nH]n2)cc1`, the AC50 runs as follows: under setting [1], 0.251 µM [falling, partial curve, poor fit]; under setting [2], 0.398 µM [rising, full curve, poor fit].

Regarding `CC(C)CCNC(=O)c1cc(-c2cccnc2)nc2ccc(S(=O)(=O)N3CCC(C)CC3)cc12`, the AC50 under setting [1] was 0.0398 µM [rising, full curve, poor fit].

As usually defined, the AC50 is the midpoint of the concentration-response curve, whichever way the signal moves.

The record behind these values is PubChem BioAssay AID1487 (National Center for Advancing Translational Sciences (NCATS), 2009).
